No constants are given. Whether binding was seen depends on the method and setting. In cells and extracts the contact can be indirect. Some results given as binding are weak or reduced against the parent protein; the word gives no strength.

The chains behind the UniProt entries cited, without tags or fusion partners.
UniProt P31269: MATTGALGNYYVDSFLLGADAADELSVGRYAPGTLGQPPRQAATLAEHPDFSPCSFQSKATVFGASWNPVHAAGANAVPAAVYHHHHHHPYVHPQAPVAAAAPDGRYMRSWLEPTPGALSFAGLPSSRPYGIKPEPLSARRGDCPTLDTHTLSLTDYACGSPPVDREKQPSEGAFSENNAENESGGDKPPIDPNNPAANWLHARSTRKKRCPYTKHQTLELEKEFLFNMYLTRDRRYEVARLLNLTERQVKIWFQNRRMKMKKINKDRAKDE

For one molecule, binding results are on record in paper PMC5902613.

Test [1] has as its target Homeobox A9 (HOXA9) (human (endogenous in the paper's human cell lines)) (UniProt P31269). Description: co-IP; Pierce crosslinking magnetic IP/Co-IP kit; 5 ug antibody cross-linked with DSS to protein A/G magnetic beads; cleared cell lysate in IP Lysis/Wash buffer, 1 h incubation; irrelevant IgG as control; western blot detection; with or without HOXA9 overexpression. On the technique in general: In western blotting, separated proteins are transferred to a membrane and probed.

Test [2] deals with HOXA9, overexpressed from the HOXA9 expressing construct (Addgene) (UniProt P31269). The description is as above.

B1: CRIP2 (protein, UniProt P52943 1-208)
chain: MASKCPKCDKTVYFAEKVSSLGKDWHKFCLKCERCSKTLTPGGHAEHDGKPFCHKPCYATLFGPKGVNIGGAGSYIYEKPLAEGPQVTGPIEVPAARAEERKASGPPKGPSRASSVTTFTGEPNTCPRCSKKVYFAEKVTSLGKDWHRPCLRCERCGKTLTPGGHAEHDGQPYCHKPCYGILFGPKGVNTGAVGSYIYDRDPEGKVQP
On to B1, for which the binding result in test [1] and in test [2] was “binds” each time.
